Results are given in words; binding and its absence hold for the method and conditions named. Binding seen in cells or lysates may run through a third protein. Some entries that bind do so weakly or less than the wild type.

The chains behind the UniProt entries cited, without tags or fusion partners. Residues count along the entry.
UniProt B6KV60, residues 25-1479: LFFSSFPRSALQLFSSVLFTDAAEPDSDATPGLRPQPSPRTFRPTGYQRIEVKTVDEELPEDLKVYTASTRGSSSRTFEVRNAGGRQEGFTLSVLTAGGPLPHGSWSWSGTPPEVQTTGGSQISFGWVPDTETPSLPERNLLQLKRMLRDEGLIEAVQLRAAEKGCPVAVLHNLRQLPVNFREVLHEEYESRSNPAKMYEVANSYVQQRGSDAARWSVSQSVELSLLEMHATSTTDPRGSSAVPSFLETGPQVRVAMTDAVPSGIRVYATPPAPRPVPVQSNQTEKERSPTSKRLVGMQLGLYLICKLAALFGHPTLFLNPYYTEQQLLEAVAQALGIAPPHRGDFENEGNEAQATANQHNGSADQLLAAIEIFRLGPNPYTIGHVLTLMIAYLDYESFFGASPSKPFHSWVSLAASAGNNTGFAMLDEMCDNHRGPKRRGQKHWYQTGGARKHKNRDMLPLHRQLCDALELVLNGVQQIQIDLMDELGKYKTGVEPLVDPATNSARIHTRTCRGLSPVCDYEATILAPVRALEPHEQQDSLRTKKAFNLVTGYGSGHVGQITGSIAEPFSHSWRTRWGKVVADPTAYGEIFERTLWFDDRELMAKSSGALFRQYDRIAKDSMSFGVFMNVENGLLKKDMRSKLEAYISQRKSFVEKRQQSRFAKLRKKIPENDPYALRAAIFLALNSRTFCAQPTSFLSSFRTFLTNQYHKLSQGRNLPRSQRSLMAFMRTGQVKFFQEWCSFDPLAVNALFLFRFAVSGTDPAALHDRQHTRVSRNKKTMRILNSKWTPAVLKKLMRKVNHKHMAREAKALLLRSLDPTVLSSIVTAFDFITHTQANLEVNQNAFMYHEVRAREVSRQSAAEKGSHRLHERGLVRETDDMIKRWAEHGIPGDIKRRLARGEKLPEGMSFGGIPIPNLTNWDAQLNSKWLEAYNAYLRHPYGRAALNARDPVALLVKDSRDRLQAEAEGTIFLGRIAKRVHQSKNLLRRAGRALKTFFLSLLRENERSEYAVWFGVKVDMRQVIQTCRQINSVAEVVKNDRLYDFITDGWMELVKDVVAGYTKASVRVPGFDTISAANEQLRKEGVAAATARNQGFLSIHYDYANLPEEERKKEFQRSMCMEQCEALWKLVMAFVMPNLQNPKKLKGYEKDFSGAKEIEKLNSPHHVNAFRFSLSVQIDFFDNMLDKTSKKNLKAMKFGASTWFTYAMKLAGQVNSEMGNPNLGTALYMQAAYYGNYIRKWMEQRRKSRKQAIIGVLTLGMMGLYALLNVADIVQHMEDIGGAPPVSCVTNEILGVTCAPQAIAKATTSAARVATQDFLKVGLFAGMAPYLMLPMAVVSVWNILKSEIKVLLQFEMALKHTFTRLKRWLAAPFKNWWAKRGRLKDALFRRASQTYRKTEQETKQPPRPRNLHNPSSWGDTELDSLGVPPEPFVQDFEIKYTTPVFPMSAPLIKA
UniProt B6KJ32, residues 27-984: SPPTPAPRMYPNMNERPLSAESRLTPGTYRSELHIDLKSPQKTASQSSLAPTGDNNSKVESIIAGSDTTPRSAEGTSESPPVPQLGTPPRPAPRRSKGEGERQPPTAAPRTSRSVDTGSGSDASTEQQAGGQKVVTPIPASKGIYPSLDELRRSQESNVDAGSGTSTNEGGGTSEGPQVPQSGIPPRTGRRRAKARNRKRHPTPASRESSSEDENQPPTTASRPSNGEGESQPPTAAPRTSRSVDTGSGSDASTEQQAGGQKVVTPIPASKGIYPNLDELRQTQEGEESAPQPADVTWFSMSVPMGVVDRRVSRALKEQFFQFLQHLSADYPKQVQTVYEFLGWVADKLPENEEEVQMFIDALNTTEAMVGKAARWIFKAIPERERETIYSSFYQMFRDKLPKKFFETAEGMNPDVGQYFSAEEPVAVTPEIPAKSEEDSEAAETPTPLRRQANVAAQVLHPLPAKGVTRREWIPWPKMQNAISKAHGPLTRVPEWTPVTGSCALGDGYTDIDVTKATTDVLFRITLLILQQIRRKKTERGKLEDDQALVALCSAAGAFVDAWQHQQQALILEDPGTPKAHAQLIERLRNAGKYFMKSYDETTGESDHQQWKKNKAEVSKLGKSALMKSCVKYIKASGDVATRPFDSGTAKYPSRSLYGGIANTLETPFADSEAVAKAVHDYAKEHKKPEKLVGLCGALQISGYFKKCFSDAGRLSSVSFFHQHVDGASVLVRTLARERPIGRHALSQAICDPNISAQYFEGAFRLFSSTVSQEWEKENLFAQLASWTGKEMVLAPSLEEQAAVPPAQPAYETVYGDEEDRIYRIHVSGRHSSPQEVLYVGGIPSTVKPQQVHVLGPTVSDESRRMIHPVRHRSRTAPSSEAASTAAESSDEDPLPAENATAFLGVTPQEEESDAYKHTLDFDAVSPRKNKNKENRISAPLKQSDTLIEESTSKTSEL

The target in assay [1] is RON2 (Toxoplasma gondii (endogenous in RH hxgprt- tachyzoites)) (UniProt B6KV60). Description: co-IP; tachyzoites lysed in 1% NP40; IP or immuno-affinity column with anti-RON sera; Western blot in reduced condition.
For assay [2] the target is unchanged. Description: co-IP; 1% NP40 and 1 M NaCl; affinity chromatography with either of the specific anti-RONs; data not shown.
The target is the same in assay [3]. Description: co-IP; intracellular parasites labelled with [35S]-methionine/cysteine for 15 min, harvested or chased 1 h, with or without BFA (5 µg/ml); lysis in 1% NP40; IP; SDS-PAGE and autoradiography.
Assay [4] deals with proRON4 (Toxoplasma gondii (endogenous in RH hxgprt- tachyzoites)) (UniProt B6KJ32). The description is as above.
For assay [5], the target named is RON4 (Toxoplasma gondii (endogenous in RH hxgprt- tachyzoites)) (UniProt B6KJ32). Nature of the assay: co-IP; tachyzoites lysed in 1% NP40; IP or immuno-affinity column with anti-RON sera; Western blot in reduced condition. A general note: A western blot detects proteins with antibodies after separation by electrophoresis.
For assay [6] the target is unchanged. Description: co-IP; 1% NP40 and 1 M NaCl; affinity chromatography with either of the specific anti-RONs; data not shown.
Assay [7] shares this target. Description: co-IP; intracellular parasites labelled with [35S]-methionine/cysteine for 15 min, harvested or chased 1 h, with or without BFA (5 µg/ml); lysis in 1% NP40; IP; SDS-PAGE and autoradiography.
The target in assay [8] is proRON2 (Toxoplasma gondii (endogenous in RH hxgprt- tachyzoites)) (UniProt B6KV60). Nature of the assay: co-IP; pulse-chase labelling, 1% NP40 lysis, IP with anti-RON2n, anti-RON5 or anti-RON8; data not shown.

With RON4 (from UniProt B6KJ32 27-984), the binding result in assay [1], in assay [2] and in assay [3] was “binds” throughout.

As for proRON2 (from UniProt B6KV60 25-1479), the binding entry in assay [4] was “binds”.

With RON2 (from UniProt B6KV60 25-1479), the binding entry in assay [5], in assay [6] and in assay [7] was “binds” each time.

proRON4 (from UniProt B6KJ32 27-984): in assay [8], the binding result is reported as “binds”.
